According to publication PMC4605623:
No constants are given. Whether binding was seen depends on the method and setting. Binding seen in cells or lysates may run through a third protein. A result given as binding can be weak or reduced; the word gives no strength. Tags and fused reporters may be left off the sequences shown.

The chains behind the UniProt entries cited, without tags or fusion partners. Where a name states a change or a piece, a line headed by the entry shows the natural chain unless it says otherwise.
UniProt P23258: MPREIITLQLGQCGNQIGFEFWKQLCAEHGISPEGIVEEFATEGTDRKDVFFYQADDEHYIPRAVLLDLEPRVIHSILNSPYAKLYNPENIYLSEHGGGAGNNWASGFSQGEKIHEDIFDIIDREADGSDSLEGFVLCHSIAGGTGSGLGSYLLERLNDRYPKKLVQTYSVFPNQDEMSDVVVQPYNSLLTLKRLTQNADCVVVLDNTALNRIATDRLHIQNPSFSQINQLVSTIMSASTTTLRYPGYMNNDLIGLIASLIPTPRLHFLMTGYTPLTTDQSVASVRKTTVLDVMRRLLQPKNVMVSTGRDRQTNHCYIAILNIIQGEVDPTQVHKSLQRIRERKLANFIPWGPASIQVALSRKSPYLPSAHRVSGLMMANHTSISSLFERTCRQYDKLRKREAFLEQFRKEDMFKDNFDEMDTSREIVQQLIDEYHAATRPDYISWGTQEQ

Target: T1, EGFP-FANCC (GFP-tagged full length FANCC) (UniProt Q00597)
T1 sequence: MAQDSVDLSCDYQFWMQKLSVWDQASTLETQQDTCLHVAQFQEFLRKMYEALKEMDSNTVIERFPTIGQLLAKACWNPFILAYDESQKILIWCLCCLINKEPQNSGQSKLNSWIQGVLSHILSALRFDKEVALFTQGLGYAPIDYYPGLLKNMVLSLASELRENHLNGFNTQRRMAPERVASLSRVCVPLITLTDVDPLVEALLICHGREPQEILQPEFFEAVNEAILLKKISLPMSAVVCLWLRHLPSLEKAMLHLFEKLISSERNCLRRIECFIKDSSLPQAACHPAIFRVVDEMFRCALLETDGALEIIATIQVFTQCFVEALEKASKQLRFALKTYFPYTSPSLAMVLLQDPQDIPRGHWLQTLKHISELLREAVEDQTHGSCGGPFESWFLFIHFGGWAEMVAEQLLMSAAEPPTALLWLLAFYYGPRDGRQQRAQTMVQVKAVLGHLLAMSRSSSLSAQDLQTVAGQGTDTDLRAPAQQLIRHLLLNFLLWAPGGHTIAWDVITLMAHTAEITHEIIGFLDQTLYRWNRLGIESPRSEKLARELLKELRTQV
Assay: co-IP; lysates of EGFP-FANCC transfected 293T cells (50 mM Tris-HCl, 150 mM NaCl, 1% Triton X-100) immunoprecipitated with anti-GFP or control mouse IgG, Dynabeads; immunoblot with anti-γ-tubulin or anti-FANCC

- binding: binds
Substance: endogenous γ-tubulin (from UniProt P23258)
